Inconclusive results, whose numbers are uncertain, are shown with a selection of clear calls. Potencies beside an inconclusive call are fits to weak or partial responses and may not hold up. Active and inactive are the calls of the source. Calls follow the shape of the dose curve; as a rule, active = well fitted curve in the direction sought with a large enough effect; inconclusive = small, poorly fitted or top-dose-only effect, or another doubt; inactive = no such curve, though single readings can be large; an effect the other way counts as inactive or inconclusive.
Legend:
[1] = Quantitative High-Throughput drug screen in 47 multiple myeloma cell lines against the NCATS MIPE library collection: JIM1_ECACC cell viability assay (AID 1918964); conditions: JIM1 myeloma viability, CellTiter-Glo ATP luminescence, 48 h; viability (% of DMSO): at 45.8 µM (top of the series)
In short: (§1)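 Relative luminescence from CellTiter-Glo served as the viability signal, referenced to DMSO-treated (100%) and cell-free medium (0%) controls. Treatment lasted 48 hours at 37C with 500 cells per well.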

[2] = Quantitative High-Throughput drug screen in 47 multiple myeloma cell lines against the NCATS MIPE library collection: JJN3_DSMZ cell viability assay (AID 1918966; also: nearly all actives have a fitted effect of over 50% in size); conditions: JJN3 myeloma cells viability, CellTiter-Glo ATP, 48 h; viability, % of DMSO: at 45.8 µM (top of the series)
In short: as §1

[3] = Quantitative High-Throughput drug screen in 47 multiple myeloma cell lines against the NCATS MIPE library collection: Karpas25_ECACC cell viability assay (AID 1918968; also: nearly all actives have a fitted effect of over 35% in size); conditions: Karpas25 myeloma viability, CellTiter-Glo ATP, 48 h; viability (% of control): at 45.8 µM (top of the series)
In short: as §1

[4] = Quantitative High-Throughput drug screen in 47 multiple myeloma cell lines against the NCATS MIPE library collection: KMS27_JCRB cell viability assay (AID 1918970); conditions: KMS27 myeloma cells, CellTiter-Glo ATP viability, 48 h; viability (% of DMSO): at 45.8 µM (top of the series); also: nearly all actives have a fitted effect of over 30% in size
In short: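 Myeloma cells (500 per well) were exposed to MIPE 4.0 compounds for 48 h at 37 °C, 5% CO2; viability was read as ATP luminescence with CellTiter-Glo, normalized to DMSO-only (100%) and media-only (0%) wells.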

[5] = Quantitative High-Throughput drug screen in 47 multiple myeloma cell lines against the NCATS MIPE library collection: KMS12PE_JCRB cell viability assay (AID 1918972); conditions: KMS12PE myeloma viability, CellTiter-Glo ATP, 48 h; viability: at 45.8 µM (top of the series); also: nearly all actives have a fitted effect of over 30% in size
In short: as §1

[6] = Quantitative High-Throughput drug screen in 47 multiple myeloma cell lines against the NCATS MIPE library collection: MMM1_PLB cell viability assay (AID 1918976); also: nearly all actives have a fitted effect of over 35% in size
In short: (§2)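 Readout: median RLU from CellTiter-Glo after 5 min at room temperature. Preceding step was 48 h drug treatment of 500 cells/well at 37 °C, 5% CO2, with DMSO-only and media-only control wells.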

[7] = Quantitative High-Throughput drug screen in 47 multiple myeloma cell lines against the NCATS MIPE library collection: MOLP8_DSMZ cell viability assay (AID 1918977); conditions: MOLP8 myeloma viability, CellTiter-Glo ATP luminescence, 48 h; viability (% of control): at 45.8 µM (top of the series); also: nearly all actives have a fitted effect of over 45% in size
In short: as §2

[8] = Quantitative High-Throughput drug screen in 47 multiple myeloma cell lines against the NCATS MIPE library collection: NCIH929_DSMZ cell viability assay (AID 1918978); also: nearly all actives have a fitted effect of over 35% in size
In short: as §2

[9] = Quantitative High-Throughput drug screen in 47 multiple myeloma cell lines against the NCATS MIPE library collection: OCIMY1_PLB cell viability assay (AID 1918979); also: nearly all actives have a fitted effect of over 35% in size
In short: as §2

[10] = Quantitative High-Throughput drug screen in 47 multiple myeloma cell lines against the NCATS MIPE library collection: MM1R_ATCC cell viability assay (AID 1918981); also: nearly all actives have a fitted effect of over 35% in size
In short: as §2

[11] = Quantitative High-Throughput drug screen in 47 multiple myeloma cell lines against the NCATS MIPE library collection: LP1_DSMZ cell viability assay (AID 1918982); also: nearly all actives have a fitted effect of over 35% in size
In short: as §2

[12] = Quantitative High-Throughput drug screen in 47 multiple myeloma cell lines against the NCATS MIPE library collection: KMS12BM_JCRB cell viability assay (AID 1918971); also: nearly all actives have a fitted effect of over 35% in size
In short: (§3)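 Approved and investigational drugs from MIPE 4.0 were added by pin tool to 500 cells per well. After 48 hours at 37C, ATP-based CellTiter-Glo luminescence indicated remaining viability.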

[13] = Quantitative High-Throughput drug screen in 47 multiple myeloma cell lines against the NCATS MIPE library collection: KMS20_JCRB cell viability assay (AID 1918973); conditions: CellTiter-Glo ATP, 48 h; viability (% of DMSO): at 45.8 µM (top of the series); also: nearly all actives have a fitted effect of over 45% in size
In short: as §1

[14] = Quantitative High-Throughput drug screen in 47 multiple myeloma cell lines against the NCATS MIPE library collection: KMS21BM_JCRB cell viability assay (AID 1918974); conditions: ATP luminescence, 48 h; viability: at 45.8 µM (top of the series) unless noted
In short: as §1

[15] = Quantitative High-Throughput drug screen in 47 multiple myeloma cell lines against the NCATS MIPE library collection: KMS26_JCRB cell viability assay (AID 1918975); conditions: KMS26 myeloma cells viability, CellTiter-Glo ATP, 48 h; viability (% of DMSO): at 45.8 µM (top of the series); also: nearly all actives have a fitted effect of over 45% in size
In short: as §3

[16] = Quantitative High-Throughput drug screen in 47 multiple myeloma cell lines against the NCATS MIPE library collection: MM1S_ATCC cell viability assay (AID 1918980); also: nearly all actives have a fitted effect of over 45% in size
In short: as §2

[17] = Quantitative High-Throughput drug screen in 47 multiple myeloma cell lines against the NCATS MIPE library collection: KMS28PE_JCRB cell viability assay (AID 1918983); also: nearly all actives have a fitted effect of over 35% in size
In short: as §2

[18] = Quantitative High-Throughput drug screen in 47 multiple myeloma cell lines against the NCATS MIPE library collection: H1112_PLB cell viability assay (AID 1918967; also: nearly all actives have a fitted effect of over 30% in size); conditions: H1112 myeloma cells viability, ATP luminescence, 48 h; viability: at 45.8 µM (top of the series)
In short: as §1
Potency is read from the fitted curve at half-maximal effect.

CC(C)n1nc(-c2ccc3oc(N)nc3c2)c2c(N)ncnc21
active: Potency [2] 0.0074 µM | Potency [6] 0.0026 µM
inconclusive: Potency [1] 1.32 µM [cytotoxic, partial curve] | viability (% of control) [3] 0.285% [cytotoxic] | Potency [4] 0.0053 µM [cytotoxic, full curve] | Potency [5] 0.0264 µM [cytotoxic, full curve, poor fit] | Potency [7] 0.0209 µM [cytotoxic, full curve] | Potency [8] 0.0074 µM [cytotoxic, full curve] | Potency [9] 0.0148 µM [cytotoxic, full curve] | Potency [10] 0.0187 µM [cytotoxic, full curve] | Potency [11] 6.62 µM [cytotoxic, partial curve]

CC[C@H](NC(=O)[C@H](C)NC)C(=O)N1C[C@@H](O)C[C@H]1Cc1c(-c2[nH]c3cc(F)ccc3c2C[C@H]2C[C@H](O)CN2C(=O)[C@H](CC)NC(=O)[C@H](C)NC)[nH]c2cc(F)ccc12
active: Potency [1] 2.09 µM | Potency [5] 11.8 µM | Potency [13] 4.69 µM | Potency [14] 0.526 µM | Potency [11] 20.9 µM
inactive: Potency [2] | Potency [12] | Potency [7]
inconclusive: Potency [15] 1.05 µM [rising, full curve, poor fit] | Potency [9] 0.0037 µM [cytotoxic, full curve, poor fit]

CC1COC2(CCN(c3nc(=O)c4cc(C(F)(F)F)cc([N+](=O)[O-])c4s3)CC2)O1 (stereo not drawn)
inactive: Potency [1] | Potency [2] | Potency [3] | Potency [12] | Potency [7] | Potency [16] | Potency [10] | Potency [11] | Potency [17]
inconclusive: Potency [5] 37.2 µM [rising, partial curve, poor fit] | Potency [13] 0.0053 µM [rising, full curve, poor fit] | Potency [14] 6.62 µM [rising, full curve] | Potency [15] 5.26 µM [cytotoxic, partial curve, poor fit] | Potency [6] 0.0074 µM [rising, full curve, poor fit]

CC[C@@H]1C=C(C)C[C@H](C)C[C@H](OC)[C@H]2O[C@@](O)(C(=O)C(=O)N3CCCC[C@@H]3C(=O)O[C@H](C(C)=C[C@@H]3CC[C@H](Cl)[C@H](OC)C3)[C@H](C)[C@@H](O)CC1=O)[C@H](C)C[C@H]2OC
active: Potency [2] 20.9 µM | Potency [5] 7.43 µM | Potency [6] 11.8 µM
inconclusive: Potency [1] 2.64 µM [cytotoxic, full curve, poor fit] | Potency [3] 37.2 µM [cytotoxic, single point] | Potency [12] 11.8 µM [cytotoxic, partial curve] | viability (% of DMSO) [13] 48.2% [cytotoxic] | Potency [15] 37.2 µM [cytotoxic, single point] | Potency [7] 13.2 µM [cytotoxic, partial curve] | Potency [8] 20.9 µM [cytotoxic, partial curve] | Potency [9] 37.2 µM [cytotoxic, single point] | Potency [10] 16.6 µM [cytotoxic, partial curve] | Potency [11] 10.5 µM [cytotoxic, partial curve, poor fit]

Cc1coc2c1C(=O)C(=O)c1c-2ccc2c1CCCC2(C)C
inactive: Potency [1]
active: Potency [2] 11.8 µM | Potency [11] 4.18 µM
inconclusive: Potency [5] 0.0526 µM [cytotoxic, full curve, poor fit] | Potency [14] 33.2 µM [rising, partial curve] | Potency [6] 14.8 µM [cytotoxic, partial curve, poor fit] | Potency [7] 16.6 µM [cytotoxic, partial curve, poor fit] | Potency [16] 0.0017 µM [cytotoxic, full curve, poor fit] | Potency [17] 11.8 µM [cytotoxic, partial curve, poor fit]

c1cnc2cc3c(cc2n1)C1CNCC3C1
inconclusive: Potency [2] 16.6 µM [cytotoxic, partial curve, poor fit] | Potency [4] 0.0166 µM [rising, full curve, poor fit] | Potency [13] 0.0012 µM [cytotoxic, full curve, poor fit] | Potency [6] 29.6 µM [cytotoxic, single point] | Potency [8] 23.5 µM [cytotoxic, single point] | Potency [16] 37.2 µM [cytotoxic, single point]
inactive: Potency [1] | Potency [3] | Potency [12] | Potency [14] | Potency [15] | Potency [7] | Potency [10]

2 successive records already listed:
Cc1coc2c1C(=O)C(=O)c1c-2ccc2c1CCCC2(C)C
inactive: Potency [1]
active: Potency [2] 11.8 µM | Potency [11] 4.18 µM
inconclusive: Potency [5] 0.0526 µM [cytotoxic, full curve, poor fit] | Potency [14] 33.2 µM [rising, partial curve] | Potency [6] 14.8 µM [cytotoxic, partial curve, poor fit] | Potency [7] 16.6 µM [cytotoxic, partial curve, poor fit] | Potency [16] 0.0017 µM [cytotoxic, full curve, poor fit] | Potency [17] 11.8 µM [cytotoxic, partial curve, poor fit]

c1cnc2cc3c(cc2n1)C1CNCC3C1
inconclusive: Potency [2] 16.6 µM [cytotoxic, partial curve, poor fit] | Potency [4] 0.0166 µM [rising, full curve, poor fit] | Potency [13] 0.0012 µM [cytotoxic, full curve, poor fit] | Potency [6] 29.6 µM [cytotoxic, single point] | Potency [8] 23.5 µM [cytotoxic, single point] | Potency [16] 37.2 µM [cytotoxic, single point]
inactive: Potency [1] | Potency [3] | Potency [12] | Potency [14] | Potency [15] | Potency [7] | Potency [10]

(next part)

O=C(O)CCC1CCC(c2cc(F)ccc2F)(S(=O)(=O)c2ccc(Cl)cc2)CC1 (stereo not drawn)
inactive: Potency [2] | Potency [11]
active: Potency [13] 5.26 µM
inconclusive: Potency [1] 9.35 µM [cytotoxic, partial curve, poor fit] | Potency [12] 0.0209 µM [rising, full curve, poor fit] | Potency [14] 0.833 µM [cytotoxic, full curve, poor fit] | Potency [6] 0.0019 µM [rising, full curve, poor fit] | Potency [7] 20.9 µM [cytotoxic, single point]

O=c1oc2c(O)c(O)cc3c(=O)oc4c(O)c(O)cc1c4c23
inactive: Potency [4] | Potency [8] | Potency [9]
inconclusive: Potency [1] 0.332 µM [cytotoxic, full curve, poor fit] | Potency [2] 4.18 µM [cytotoxic, partial curve, poor fit] | Potency [12] 20.9 µM [cytotoxic, partial curve, poor fit] | Potency [13] 0.0372 µM [cytotoxic, full curve, poor fit] | Potency [14] 23.5 µM [rising, partial curve] | Potency [15] 16.6 µM [cytotoxic, partial curve, poor fit] | Potency [6] 7.43 µM [cytotoxic, partial curve, poor fit] | Potency [7] 16.6 µM [cytotoxic, partial curve, poor fit] | Potency [16] 13.2 µM [cytotoxic, partial curve, poor fit] | Potency [11] 11.8 µM [rising, partial curve, poor fit]

CN[C@@H](C)[C@H]1[C@H](O)C[C@@]2(C)[C@@H]3CC[C@H]4C(C)(C)[C@@H](NC)CC[C@@]45C[C@@]35CC[C@]12C
inactive: Potency [1] | Potency [2] | Potency [3] | Potency [4] | Potency [7] | Potency [17]
active: viability [14] 62.4%
inconclusive: Potency [12] 0.0023 µM [rising, full curve, poor fit] | Potency [5] 18.7 µM [cytotoxic, partial curve, poor fit] | Potency [13] 33.2 µM [cytotoxic, partial curve, poor fit] | Potency [6] 0.0042 µM [rising, full curve, poor fit] | Potency [9] 26.4 µM [cytotoxic, single point] | Potency [16] 2.64 µM [cytotoxic, partial curve, poor fit]

Nc1cc(C(Cl)=C(Cl)Cl)c(S(N)(=O)=O)cc1S(N)(=O)=O
inconclusive: Potency [2] 0.0118 µM [cytotoxic, full curve, poor fit] | Potency [4] 0.0074 µM [cytotoxic, full curve, poor fit] | Potency [12] 2.35 µM [cytotoxic, full curve, poor fit] | Potency [13] 5.26 µM [cytotoxic, full curve, poor fit] | Potency [14] 2.35 µM [cytotoxic, full curve, poor fit] | Potency [6] 6.62 µM [cytotoxic, partial curve, poor fit]
inactive: Potency [1] | Potency [5] | Potency [7] | Potency [10]

CN(C)S(=O)(=O)c1ccc2c(c1)C(=Cc1cc3c([nH]1)CCCC3)C(=O)N2
active: Potency [2] 4.69 µM | Potency [13] 10.5 µM
inconclusive: Potency [1] 1.05 µM [cytotoxic, full curve, poor fit] | Potency [18] 0.833 µM [cytotoxic, full curve, poor fit] | Potency [5] 3.72 µM [cytotoxic, full curve] | Potency [14] 3.72 µM [cytotoxic, full curve, poor fit] | Potency [7] 13.2 µM [cytotoxic, partial curve, poor fit] | Potency [9] 23.5 µM [cytotoxic, partial curve, poor fit] | Potency [11] 16.6 µM [cytotoxic, partial curve]

CC[C@H]1OC(=O)[C@H](C)C(=O)[C@H](C)[C@@H](O[C@H]2O[C@H](C)C[C@H](N(C)C)[C@@H]2O)[C@](C)(OC)C[C@@H](C)C(=O)[C@H](C)[C@H]2N(CCCCn3cnc(-c4cccnc4)c3)C(=O)O[C@]12C
inactive: Potency [1]
inconclusive: Potency [2] 0.526 µM [cytotoxic, full curve, poor fit] | Potency [5] 0.148 µM [cytotoxic, full curve, poor fit] | Potency [13] 3.72 µM [cytotoxic, partial curve, poor fit] | Potency [7] 37.2 µM [cytotoxic, single point] | Potency [8] 0.0166 µM [cytotoxic, full curve, poor fit] | Potency [9] 13.2 µM [cytotoxic, partial curve, poor fit] | Potency [16] 33.2 µM [cytotoxic, single point] | Potency [11] 10.5 µM [cytotoxic, single point] | Potency [17] 13.2 µM [cytotoxic, partial curve, poor fit]

Source: PubChem BioAssay (NCATS)
